Experimental data taken from the supplement of paper PMC9233669.
Variants at the background level are over-represented here.

Assays:
biotinyl-Trp-oxazolone = test: self-aminoacylation, catalytic enhancement (BWO) (fold over background); higher = more active; k-Seq, kA / k0A0; sequences stand for … in GGGAAUGGAUCCACAUCUACGAAUUC…UUCACUGCAGACUUGACGAAGCUG
Procedure, shortened: (§1)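 Mutagenized RNA pools with a 21-nt variable region (0.43 μM) were reacted with each biotinyl-aminoacyl-oxazolone at 2–1250 μM for 90 minutes at room temperature, in 50 μL HEPES/NaCl/KCl/MgCl2/CaCl2 buffer containing 5% acetonitrile at pH 6.9–7.0. RNA captured on streptavidin was quantified by triplicate qPCR and by Illumina sequencing. The fraction reacted for each sequence was fit to a pseudo-first-order model with bootstrapping, and catalytic enhancement is the median kA divided by the uncatalyzed rate, taken as the low-activity peak of a bimodal Gaussian fit.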

biotinyl-Leu-oxazolone = test: self-aminoacylation, catalytic enhancement (BLO) (fold over background); higher = more active; k-Seq, kA / k0A0; sequences stand for … in GGGAAUGGAUCCACAUCUACGAAUUC…UUCACUGCAGACUUGACGAAGCUG
Procedure, shortened: as §1

biotinyl-Val-oxazolone = test: self-aminoacylation, catalytic enhancement (BVO) (fold over background); higher = more active; k-Seq, kA / k0A0; sequences stand for … in GGGAAUGGAUCCACAUCUACGAAUUC…UUCACUGCAGACUUGACGAAGCUG
Procedure, shortened: as §1

biotinyl-Ile-oxazolone = test: self-aminoacylation, catalytic enhancement (BIO) (fold over background); higher = more active; k-Seq, kA / k0A0; sequences stand for … in GGGAAUGGAUCCACAUCUACGAAUUC…UUCACUGCAGACUUGACGAAGCUG
Procedure, shortened: as §1

biotinyl-Met-oxazolone = test: self-aminoacylation, catalytic enhancement (BMO) (fold over background); higher = more active; k-Seq, kA / k0A0; sequences stand for … in GGGAAUGGAUCCACAUCUACGAAUUC…UUCACUGCAGACUUGACGAAGCUG
Procedure, shortened: as §1

biotinyl-Phe-oxazolone = test: self-aminoacylation, catalytic enhancement (BFO) (fold over background); higher = more active; k-Seq, kA / k0A0; sequences stand for … in GGGAAUGGAUCCACAUCUACGAAUUC…UUCACUGCAGACUUGACGAAGCUG
Procedure, shortened: as §1

Sequence	self-aminoacylation (biotinyl-Trp-oxazolone)	self-aminoacylation (biotinyl-Leu-oxazolone)	self-aminoacylation (biotinyl-Val-oxazolone)	self-aminoacylation (biotinyl-Ile-oxazolone)	self-aminoacylation (biotinyl-Met-oxazolone)	self-aminoacylation (biotinyl-Phe-oxazolone)
AAGUUUGCUAAUACUCGCACG [Fam3.1 aminoacylation ribozyme variant]	0.604	0.49	0.604	0.525	0.567	0.744
CUACAUCUAACAAUCGGUCUG [Fam1A.1 aminoacylation ribozyme variant]	0.4	0.49	0.799	0.626	0.758	0.731
CCACACUUCGAGCAAACGGUC [Fam1B.1 aminoacylation ribozyme variant]	0.57	0.632	0.655	0.678	0.663	0.648
CCACAAUUCAAGCAACCGGUC [Fam1B.1 aminoacylation ribozyme variant]	1.15	1.21	1.53	1.48	0.785	1.43
CUACACUUCAAGCAAUCCGUC [Fam1B.1 aminoacylation ribozyme variant]	0.771	0.763	0.95	0.976	0.825	1.16
UUACUUCAAACAAGCGGUCUG [Fam1A.1 aminoacylation ribozyme variant]	1.11	1.05	0.905	1.25	1.48	6.3
AUUACCCUGGUCAUCGAGCGG [Fam2.1 aminoacylation ribozyme variant]	1.61	2.9	1.8	1.95	2.38	1.12
CCGCACUUCACGCAAUCGGUC [Fam1B.1 aminoacylation ribozyme variant]	1.85	2.34	2.1	1.36	1.54	1.66
AAGUUUGCUAAUAGUCGCCAC [Fam3.1 aminoacylation ribozyme variant]	1.28	1.29	1.1	1.25	1.12	1
AAGUUUGCUAAAAGUGGCAAG [Fam3.1 aminoacylation ribozyme variant]	0.736	0.849	0.726	0.734	0.851	0.961
CUACUUCAAACAACCGAUCUG [Fam1A.1 aminoacylation ribozyme variant]	0.363	0.544	0.669	0.655	0.6	0.821
AAGGUUGCUAAUAGUCGCAAC [Fam3.1 aminoacylation ribozyme variant]	1.52	1.22	1.23	1.44	1.94	1.18
AUUACCCUAGUCAUCGAGGGA [Fam2.1 aminoacylation ribozyme variant]	1.83	1.78	1.31	1.34	1.78	0.669
CUUCUUCCAACAAUCGGUCUG [Fam1A.1 aminoacylation ribozyme variant]	1.11	0.665	0.697	0.773	0.824	0.858
CUACUUCAAACUAUCGUUCUG [Fam1A.1 aminoacylation ribozyme variant]	0.494	0.613	0.674	0.629	0.508	0.696
CUACUUCACAAAAUCGGUCUG [Fam1A.1 aminoacylation ribozyme variant]	0.739	0.823	0.831	0.985	0.863	0.608
AAGUUUGCCAAUAAUCGCAAG [Fam3.1 aminoacylation ribozyme variant]	0.881	0.557	0.95	0.881	0.6	1.15
AUUACCCUGUUCAGCGAGUGA [Fam2.1 aminoacylation ribozyme variant]	6.39	4.4	2.96	2.51	5.05	14.4
CUACUUCCAUCAAUCGGUCUG [Fam1A.1 aminoacylation ribozyme variant]	0.741	0.731	0.79	0.758	0.627	0.571
AAGUUUGUGAAUAGUCGCAAG [Fam3.1 aminoacylation ribozyme variant]	1.49	1.52	1.12	1.31	1.33	1.62
AAGUUUGCUAAUAGUGGCUAG [Fam3.1 aminoacylation ribozyme variant]	0.748	0.65	0.862	0.811	0.777	1.52
AAGUUAACUAAUAGUCGCAAG [Fam3.1 aminoacylation ribozyme variant]	1.2	1.49	1.55	1.63	1.21	1.77
CUUCUUUAAACAAUCGGUCUG [Fam1A.1 aminoacylation ribozyme variant]	0.783	0.851	0.788	0.898	0.95	1.13
CUACUUCCAACAAACGGUCUG [Fam1A.1 aminoacylation ribozyme variant]	0.756	0.598	0.707	0.768	0.676	0.741
UCUACCCUGGUCAUCGAGUGA [Fam2.1 aminoacylation ribozyme variant]	12.6	9.36	5.79	5.18	10.4	14.6
CUACUUCAAACAUUCGGUCUA [Fam1A.1 aminoacylation ribozyme variant]	0.89	0.766	1.02	1.03	0.882	0.783

Sequence	self-aminoacylation (biotinyl-Trp-oxazolone)	self-aminoacylation (biotinyl-Leu-oxazolone)	self-aminoacylation (biotinyl-Val-oxazolone)	self-aminoacylation (biotinyl-Ile-oxazolone)	self-aminoacylation (biotinyl-Met-oxazolone)	self-aminoacylation (biotinyl-Phe-oxazolone)
AUUCACCUAGGUCGUAGGGUG [Fam2.2 aminoacylation ribozyme variant]	0.737	1.74	1.17	1.04	1.46	1.02
CCACAAUUCAAGCAAUAGGUC [Fam1B.1 aminoacylation ribozyme variant]	0.558	0.599	0.926	1.01	0.721	1.17
AGUACCCUGGUCAUCGAGGGA [Fam2.1 aminoacylation ribozyme variant]	2.91	2.21	1.47	1.43	1.22	1.82
AUUCACCUAGGUGAUCGGAUG [Fam2.2 aminoacylation ribozyme variant]	1.16	0.943	0.924	0.945	0.967	1.82
AUUACCCUGGUGAUGGAGUGA [Fam2.1 aminoacylation ribozyme variant]	5.69	5.75	2.55	2.62	5.67	31.1
ACUACCUUGGUCAUCGAGUGA [Fam2.1 aminoacylation ribozyme variant]	5.82	4.02	3.23	2.96	3.77	10.5
AAGUCUGCUCAUAGUCGCAAG [Fam3.1 aminoacylation ribozyme variant]	4.23	1.08	1.18	1.16	1.29	8.38
CCACACUGCAAGCACUCGGUC [Fam1B.1 aminoacylation ribozyme variant]	1.47	1.39	1.66	1.63	1.54	2.57
AGGUUUGCAAAUAGUCGCAAG [Fam3.1 aminoacylation ribozyme variant]	0.996	1.01	1.18	1.16	1.19	1.6
AUUACCCUCGUCAUCGAGAGA [Fam2.1 aminoacylation ribozyme variant]	0.469	0.746	0.864	0.769	1.01	0.86
CUACUUGAAACAUUCGGUCUG [Fam1A.1 aminoacylation ribozyme variant]	1.16	1.31	1.51	1.36	1.48	0.666
AGUUACCUAGGUCAUCGGGUG [Fam2.2 aminoacylation ribozyme variant]	6.91	6.47	4.62	4.59	5.38	40.1
CUACUUCAAACAAUUGGUCUA [Fam1A.1 aminoacylation ribozyme variant]	0.678	0.755	0.75	0.89	0.693	0.989
AUACUUCAAACAAUCGGUCUC [Fam1A.1 aminoacylation ribozyme variant]	7.89	0.789	0.787	0.823	0.754	13.5
CCACACUUCAAGCAAGCGGUG [Fam1B.1 aminoacylation ribozyme variant]	2.4	3.19	1.86	1.97	2.45	1.73
CUACUUCAAACAAUCGGUGCG [Fam1A.1 aminoacylation ribozyme variant]	0.889	0.83	0.644	0.723	0.677	0.944
AUUACCCUGGUCAUCAAGUGG [Fam2.1 aminoacylation ribozyme variant]	0.439	0.864	0.848	0.833	0.856	0.944
CCAGACUUCAUGCAAUCGGUC [Fam1B.1 aminoacylation ribozyme variant]	0.768	1.17	1.14	1.11	0.822	0.993
CUACUUCAAACAAUCAGUCUC [Fam1A.1 aminoacylation ribozyme variant]	8	0.872	0.904	0.833	0.723	25.9
AUACACCUAGGUCAUAGGGUG [Fam2.2 aminoacylation ribozyme variant]	2.14	1.36	1.43	1.35	1.23	3.76
AAGUUUGCUAAUAGUCGAAUG [Fam3.1 aminoacylation ribozyme variant]	1.17	0.88	0.903	1.09	1.17	1.48
CCACACUUUAAGCAAGCGGUC [Fam1B.1 aminoacylation ribozyme variant]	0.593	0.719	0.946	0.958	0.735	0.848
AAGUUUGCUGAUAUUCGCAAG [Fam3.1 aminoacylation ribozyme variant]	1.29	0.901	0.899	0.991	0.852	1.3
CCACAGUUCAAGCAAUCGGUU [Fam1B.1 aminoacylation ribozyme variant]	1.87	1.61	1.82	1.7	1.52	1.25
AUUCACCUAGCUCAUCGGGUC [Fam2.2 aminoacylation ribozyme variant]	0.718	0.882	1.12	1.01	0.947	0.876
